PubChem BioAssay AID1259254 | NCATS, 2017

- Screen: 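Finding genes that stop cells copying their DNA twice in one cycle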 (primary screen)
- Cell system: human HCT116 colorectal cancer cells
- Knock-down reagent: single siRNA against human genes
- Duration: 3 days
- Detection: 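Imaged Hoechst DNA stain sorts each cell into a cycle phase by DNA amount; per plate, G2 fraction set to 0% for non-targeting and 100% for GMNN siRNA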
- Direction: G2 robust z-score and G2 cells, % of GMNN control: higher = more G2 cells, more excess DNA replication
- Rule for the call: 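Active siRNAs have a G2 robust z of 5 or more median absolute deviations over the median, which in these data means about 38% or higher of GMNN control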
The whole screen tested about 59,000 reagents; below is a random part of them. In the full data, about 1,550 (2.6%) were called active. 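G2 share is only a proxy for re-replication; each gene was hit by three separate siRNAs, and active genes were retested.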 Reagents against one gene are numbered here. Not all columns of the deposit are shown. Not given: the amount of reagent.

G2 robust z-score | G2 cells, % of GMNN control | activity call | gene | reagent no.
1.44 | 13.1 | inactive | DOCK8-AS1 | 1
1.33 | 12.4 | inactive | DOCK8-AS1 | 2
0.43 | 5.99 | inactive | DOCK8-AS1 | 3
0.623 | 7.35 | inactive | CTDSPL | 1
1.8 | 15.6 | inactive | CTDSPL | 2
-0.999 | -4.06 | inactive | CTDSPL | 3
-0.605 | -1.29 | inactive | TANC2 | 1
-0.536 | -0.803 | inactive | TANC2 | 2
-0.203 | 1.54 | inactive | TANC2 | 3
3.67 | 28.8 | inactive | SLC25A31 | 1
6.46 | 48.5 | active | SLC25A31 | 2
0.74 | 8.18 | inactive | SLC25A31 | 3
2.47 | 20.4 | inactive | COPA | 1
1.98 | 16.9 | inactive | COPA | 2
1.03 | 10.2 | inactive | COPA | 3
-1.22 | -5.62 | inactive | MYT1L | 1
-0.705 | -1.99 | inactive | MYT1L | 2
1.37 | 12.6 | inactive | MYT1L | 3
-0.22 | 1.42 | inactive | NAT8B | 1
-0.128 | 2.07 | inactive | NAT8B | 2
-0.957 | -3.77 | inactive | NAT8B | 3
0.958 | 9.71 | inactive | HS6ST1P1 | 1
-0.369 | 0.372 | inactive | HS6ST1P1 | 2
0.361 | 5.51 | inactive | HS6ST1P1 | 3
-0.376 | 0.319 | inactive | HS6ST1P1 | 4
0.352 | 5.44 | inactive | HS6ST1P1 | 5
-0.807 | -2.71 | inactive | HS6ST1P1 | 6
1.21 | 11.5 | inactive | ATP1A2 | 1
-0.152 | 1.9 | inactive | ATP1A2 | 2
0.864 | 9.05 | inactive | ATP1A2 | 3
1.61 | 14.3 | inactive | DAXX | 1
-0.568 | -1.03 | inactive | DAXX | 2
0.604 | 7.21 | inactive | DAXX | 3
-0.853 | -3.03 | inactive | GPIHBP1 | 1
-0.631 | -1.47 | inactive | GPIHBP1 | 2
2.49 | 20.5 | inactive | GPIHBP1 | 3
0.485 | 6.38 | inactive | HNRNPDL | 1
-0.015 | 2.86 | inactive | HNRNPDL | 2
2.32 | 19.3 | inactive | HNRNPDL | 3
-0.466 | -0.31 | inactive | PRX | 1
-0.491 | -0.488 | inactive | PRX | 2
-1.09 | -4.7 | inactive | PRX | 3
-0.555 | -0.94 | inactive | EEF1B2 | 1
-0.953 | -3.74 | inactive | EEF1B2 | 2
-1.34 | -6.46 | inactive | EEF1B2 | 3
2.58 | 21.1 | inactive | SPIN2B | 1
0.342 | 5.38 | inactive | SPIN2B | 2
0.24 | 4.66 | inactive | SPIN2B | 3
1.47 | 13.3 | inactive | CAPS | 1
3.83 | 29.9 | inactive | CAPS | 2
-1.31 | -6.25 | inactive | CAPS | 3
-0.501 | -0.557 | inactive | SULT2A1 | 1
-0.767 | -2.43 | inactive | SULT2A1 | 2
3.06 | 24.5 | inactive | SULT2A1 | 3
-0.637 | -1.51 | inactive | ADGRL1 | 1
0.343 | 5.38 | inactive | ADGRL1 | 2
2.11 | 17.8 | inactive | ADGRL1 | 3
-0.275 | 1.04 | inactive | NHSL2 | 1
1.87 | 16.1 | inactive | NHSL2 | 2
-0.597 | -1.23 | inactive | NHSL2 | 3
0.205 | 4.41 | inactive | NHSL2 | 4
-0.935 | -3.61 | inactive | NHSL2 | 5
-0.88 | -3.23 | inactive | NHSL2 | 6
-0.00736 | 2.92 | inactive | C10orf55 | 1
0.0952 | 3.64 | inactive | C10orf55 | 2
0.871 | 9.1 | inactive | C10orf55 | 3
1.55 | 13.9 | inactive | NOP2 | 1
0.954 | 9.68 | inactive | NOP2 | 2
-0.13 | 2.05 | inactive | NOP2 | 3

4 neighbouring reagents from above:
G2 robust z-score | G2 cells, % of GMNN control | activity call | gene | reagent no.
1.87 | 16.1 | inactive | NHSL2 | 2
-0.597 | -1.23 | inactive | NHSL2 | 3
0.205 | 4.41 | inactive | NHSL2 | 4
-0.935 | -3.61 | inactive | NHSL2 | 5
